According to article doi:10.1101/2022.03.04.482944:
Where a chain is given by its changes, count along the chain named. Results are given in words; binding and its absence hold for the method and conditions named.

The chains behind the UniProt entries cited, without tags or fusion partners. Residues count along the entry.
UniProt P27037, residues 20-513: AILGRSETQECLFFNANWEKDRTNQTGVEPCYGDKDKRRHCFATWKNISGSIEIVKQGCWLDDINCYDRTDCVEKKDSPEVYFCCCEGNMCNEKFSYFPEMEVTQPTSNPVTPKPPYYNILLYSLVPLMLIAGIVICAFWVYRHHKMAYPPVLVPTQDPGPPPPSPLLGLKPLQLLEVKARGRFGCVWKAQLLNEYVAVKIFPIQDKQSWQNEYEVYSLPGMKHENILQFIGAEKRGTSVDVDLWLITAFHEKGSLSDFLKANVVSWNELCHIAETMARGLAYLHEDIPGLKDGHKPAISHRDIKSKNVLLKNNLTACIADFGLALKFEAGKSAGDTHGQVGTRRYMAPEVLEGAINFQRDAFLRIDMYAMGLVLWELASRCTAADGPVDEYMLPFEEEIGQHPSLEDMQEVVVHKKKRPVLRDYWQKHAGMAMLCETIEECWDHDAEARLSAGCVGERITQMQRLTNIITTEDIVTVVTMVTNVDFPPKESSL
UniProt P36894, residues 24-532: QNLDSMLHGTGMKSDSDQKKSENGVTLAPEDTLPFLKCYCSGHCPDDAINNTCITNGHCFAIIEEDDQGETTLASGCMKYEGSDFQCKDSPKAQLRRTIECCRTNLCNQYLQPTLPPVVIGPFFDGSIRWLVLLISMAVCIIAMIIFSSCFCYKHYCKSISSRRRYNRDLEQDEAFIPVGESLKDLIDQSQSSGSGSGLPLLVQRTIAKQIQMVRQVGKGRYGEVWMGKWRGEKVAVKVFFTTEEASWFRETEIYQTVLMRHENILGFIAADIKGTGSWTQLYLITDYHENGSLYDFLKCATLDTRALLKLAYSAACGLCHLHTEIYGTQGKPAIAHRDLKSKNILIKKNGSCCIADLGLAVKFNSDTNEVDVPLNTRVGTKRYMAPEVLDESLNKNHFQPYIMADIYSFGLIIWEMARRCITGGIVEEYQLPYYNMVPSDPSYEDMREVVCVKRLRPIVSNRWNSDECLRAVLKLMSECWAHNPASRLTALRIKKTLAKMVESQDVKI

What was measured:
Experiment in all cases: Ligand Surface Binding Assay
ACVR2A-Halo (human) = ACVR2A-Halo (human) (UniProt P27037)
ALK2-Halo (human) = biological target: T1, ALK2-Halo (human) (UniProt Q04771)
T1 sequence: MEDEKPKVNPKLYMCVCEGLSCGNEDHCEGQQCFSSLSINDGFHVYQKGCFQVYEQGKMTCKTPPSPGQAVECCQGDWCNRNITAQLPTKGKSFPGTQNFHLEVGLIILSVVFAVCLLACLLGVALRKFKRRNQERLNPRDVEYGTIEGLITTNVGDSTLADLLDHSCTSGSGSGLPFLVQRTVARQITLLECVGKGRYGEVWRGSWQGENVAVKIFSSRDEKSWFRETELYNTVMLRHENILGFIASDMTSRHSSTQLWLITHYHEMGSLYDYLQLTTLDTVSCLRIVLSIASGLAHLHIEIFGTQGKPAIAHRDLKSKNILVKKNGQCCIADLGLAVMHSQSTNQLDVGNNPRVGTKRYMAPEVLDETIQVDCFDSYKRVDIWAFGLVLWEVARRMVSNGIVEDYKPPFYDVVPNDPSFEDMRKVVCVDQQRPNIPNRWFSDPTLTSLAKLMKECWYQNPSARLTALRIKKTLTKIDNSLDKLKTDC

ALK2-R206H-Halo (human) = biological target: T2, ALK2-R206H-Halo (human) (UniProt Q04771)
T2 sequence: T1 sequence with R186H

ALK3-Halo (human) = ALK3-Halo (human) (UniProt P36894)
[1] = biological target: T3, ALK7-Halo (rat (printed as rALK7)) (UniProt P70539)
T3 sequence: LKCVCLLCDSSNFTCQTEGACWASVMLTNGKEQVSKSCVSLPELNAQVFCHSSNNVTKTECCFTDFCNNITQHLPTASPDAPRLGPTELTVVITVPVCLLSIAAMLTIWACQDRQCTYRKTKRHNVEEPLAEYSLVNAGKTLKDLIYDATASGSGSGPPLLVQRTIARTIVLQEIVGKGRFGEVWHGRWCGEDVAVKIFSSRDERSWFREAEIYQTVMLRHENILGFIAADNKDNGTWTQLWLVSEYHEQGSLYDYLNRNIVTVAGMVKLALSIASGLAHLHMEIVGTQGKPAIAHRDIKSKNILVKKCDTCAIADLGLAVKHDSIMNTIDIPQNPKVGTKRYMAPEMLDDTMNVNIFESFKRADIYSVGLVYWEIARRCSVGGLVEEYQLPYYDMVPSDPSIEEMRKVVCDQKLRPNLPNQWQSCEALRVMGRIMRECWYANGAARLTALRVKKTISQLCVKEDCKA

ALK4-Halo (human) = biological target: T4, ALK4-Halo (human) (UniProt P36896)
T4 sequence: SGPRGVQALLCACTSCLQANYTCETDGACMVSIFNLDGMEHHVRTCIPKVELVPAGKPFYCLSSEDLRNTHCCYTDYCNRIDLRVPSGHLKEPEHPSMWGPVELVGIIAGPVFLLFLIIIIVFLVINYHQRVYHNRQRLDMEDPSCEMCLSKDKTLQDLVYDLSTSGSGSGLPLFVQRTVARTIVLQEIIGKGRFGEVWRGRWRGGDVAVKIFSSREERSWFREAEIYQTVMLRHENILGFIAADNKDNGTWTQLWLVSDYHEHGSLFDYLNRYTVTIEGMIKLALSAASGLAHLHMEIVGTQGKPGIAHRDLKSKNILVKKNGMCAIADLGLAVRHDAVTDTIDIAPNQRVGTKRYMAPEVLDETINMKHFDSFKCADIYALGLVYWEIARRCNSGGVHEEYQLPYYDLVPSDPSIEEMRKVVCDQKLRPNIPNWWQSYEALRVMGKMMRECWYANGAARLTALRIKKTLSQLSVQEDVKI

Measured: binding

B1: BMP9-SiR-d12 (ligand, UniProt Q9UK05 320-429)
chain: SAGAGSHCQKTSLRVNFEDIGWDSWIIAPKEYEAYECKGGCFFPLADDVTPTKHAIVQTLVHLKFPTKVGKACCVPTKLSPISVLYKDDMGVPTLKYHYEGMSVAECGCR
modifications: SiR-d12 label (NHS-SiR-d12 ester, 5-fold molar excess)
no binding (tested: 0.3 nM): all assays above
